For 19 targets, log2 fold change results are on record in the supplement of paper PMC12819154, “High-throughput peptide-centric local stability assay extends protein–ligand identification to membrane proteins, tissues and bacteria” (Nature Structural & Molecular Biology, 2025).

Chains of the proteins cited; added tags and fusions are not shown. Lines headed by an entry give the natural chain unless they say otherwise; changes in a name come on top.
UniProt P08590, whole entry: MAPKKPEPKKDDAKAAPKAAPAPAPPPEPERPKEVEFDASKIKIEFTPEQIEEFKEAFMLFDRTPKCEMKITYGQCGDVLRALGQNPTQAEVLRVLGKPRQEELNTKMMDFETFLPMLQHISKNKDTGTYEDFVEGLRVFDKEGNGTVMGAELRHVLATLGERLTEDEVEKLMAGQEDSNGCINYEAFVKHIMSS
UniProt O96020, whole entry: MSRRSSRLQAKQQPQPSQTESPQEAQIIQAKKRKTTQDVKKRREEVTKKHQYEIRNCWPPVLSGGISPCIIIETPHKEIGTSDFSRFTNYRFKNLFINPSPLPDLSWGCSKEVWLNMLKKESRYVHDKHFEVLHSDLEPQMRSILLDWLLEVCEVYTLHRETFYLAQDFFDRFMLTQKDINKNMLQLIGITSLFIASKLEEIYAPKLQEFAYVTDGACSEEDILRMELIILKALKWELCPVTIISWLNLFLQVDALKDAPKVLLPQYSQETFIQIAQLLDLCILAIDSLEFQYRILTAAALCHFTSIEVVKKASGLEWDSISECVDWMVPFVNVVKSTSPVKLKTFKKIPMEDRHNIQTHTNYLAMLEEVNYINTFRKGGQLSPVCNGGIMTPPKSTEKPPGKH
UniProt P11766: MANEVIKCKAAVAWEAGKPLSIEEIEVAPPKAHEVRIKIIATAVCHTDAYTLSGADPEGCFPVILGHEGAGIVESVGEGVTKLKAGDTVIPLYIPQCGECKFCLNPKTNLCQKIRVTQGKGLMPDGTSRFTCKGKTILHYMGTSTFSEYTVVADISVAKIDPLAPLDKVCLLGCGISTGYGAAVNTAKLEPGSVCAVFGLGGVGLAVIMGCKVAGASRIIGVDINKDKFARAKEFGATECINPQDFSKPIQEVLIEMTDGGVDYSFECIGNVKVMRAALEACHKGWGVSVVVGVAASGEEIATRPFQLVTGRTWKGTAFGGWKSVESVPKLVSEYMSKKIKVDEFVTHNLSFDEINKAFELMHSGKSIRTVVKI
UniProt P06732: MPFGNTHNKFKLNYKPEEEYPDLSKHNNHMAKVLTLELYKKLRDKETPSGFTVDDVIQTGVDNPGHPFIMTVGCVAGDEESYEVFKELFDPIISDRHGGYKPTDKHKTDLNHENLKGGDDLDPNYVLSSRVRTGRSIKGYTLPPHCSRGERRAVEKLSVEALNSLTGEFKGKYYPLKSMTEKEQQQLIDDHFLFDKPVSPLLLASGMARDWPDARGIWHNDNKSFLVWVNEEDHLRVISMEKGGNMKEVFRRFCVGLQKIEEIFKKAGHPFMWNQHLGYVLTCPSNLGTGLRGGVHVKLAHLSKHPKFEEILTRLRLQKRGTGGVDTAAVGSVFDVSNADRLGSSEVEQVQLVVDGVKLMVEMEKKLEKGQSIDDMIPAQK
UniProt P0C875: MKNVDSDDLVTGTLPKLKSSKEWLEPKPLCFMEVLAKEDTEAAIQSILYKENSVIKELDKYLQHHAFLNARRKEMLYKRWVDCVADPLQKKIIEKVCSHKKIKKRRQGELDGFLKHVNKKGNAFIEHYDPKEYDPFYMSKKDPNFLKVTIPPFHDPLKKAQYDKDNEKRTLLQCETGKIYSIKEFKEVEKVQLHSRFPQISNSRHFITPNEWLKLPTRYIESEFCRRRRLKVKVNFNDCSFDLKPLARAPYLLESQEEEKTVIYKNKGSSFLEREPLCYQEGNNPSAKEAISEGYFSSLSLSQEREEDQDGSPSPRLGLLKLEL
UniProt P07686: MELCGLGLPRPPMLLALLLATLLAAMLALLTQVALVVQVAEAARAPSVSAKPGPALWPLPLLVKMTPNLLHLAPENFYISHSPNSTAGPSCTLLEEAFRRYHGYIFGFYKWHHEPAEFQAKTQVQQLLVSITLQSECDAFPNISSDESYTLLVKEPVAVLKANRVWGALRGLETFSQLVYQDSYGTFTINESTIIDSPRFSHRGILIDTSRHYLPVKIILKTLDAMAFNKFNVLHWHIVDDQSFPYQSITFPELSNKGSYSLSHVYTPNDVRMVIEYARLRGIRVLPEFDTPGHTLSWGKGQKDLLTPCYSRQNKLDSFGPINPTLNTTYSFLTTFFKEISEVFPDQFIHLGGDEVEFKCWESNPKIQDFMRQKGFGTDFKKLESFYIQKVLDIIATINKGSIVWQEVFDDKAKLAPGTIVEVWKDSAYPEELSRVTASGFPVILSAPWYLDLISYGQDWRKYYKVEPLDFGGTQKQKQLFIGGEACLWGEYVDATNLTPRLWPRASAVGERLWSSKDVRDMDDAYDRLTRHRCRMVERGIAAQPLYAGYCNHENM
UniProt P12814, whole entry: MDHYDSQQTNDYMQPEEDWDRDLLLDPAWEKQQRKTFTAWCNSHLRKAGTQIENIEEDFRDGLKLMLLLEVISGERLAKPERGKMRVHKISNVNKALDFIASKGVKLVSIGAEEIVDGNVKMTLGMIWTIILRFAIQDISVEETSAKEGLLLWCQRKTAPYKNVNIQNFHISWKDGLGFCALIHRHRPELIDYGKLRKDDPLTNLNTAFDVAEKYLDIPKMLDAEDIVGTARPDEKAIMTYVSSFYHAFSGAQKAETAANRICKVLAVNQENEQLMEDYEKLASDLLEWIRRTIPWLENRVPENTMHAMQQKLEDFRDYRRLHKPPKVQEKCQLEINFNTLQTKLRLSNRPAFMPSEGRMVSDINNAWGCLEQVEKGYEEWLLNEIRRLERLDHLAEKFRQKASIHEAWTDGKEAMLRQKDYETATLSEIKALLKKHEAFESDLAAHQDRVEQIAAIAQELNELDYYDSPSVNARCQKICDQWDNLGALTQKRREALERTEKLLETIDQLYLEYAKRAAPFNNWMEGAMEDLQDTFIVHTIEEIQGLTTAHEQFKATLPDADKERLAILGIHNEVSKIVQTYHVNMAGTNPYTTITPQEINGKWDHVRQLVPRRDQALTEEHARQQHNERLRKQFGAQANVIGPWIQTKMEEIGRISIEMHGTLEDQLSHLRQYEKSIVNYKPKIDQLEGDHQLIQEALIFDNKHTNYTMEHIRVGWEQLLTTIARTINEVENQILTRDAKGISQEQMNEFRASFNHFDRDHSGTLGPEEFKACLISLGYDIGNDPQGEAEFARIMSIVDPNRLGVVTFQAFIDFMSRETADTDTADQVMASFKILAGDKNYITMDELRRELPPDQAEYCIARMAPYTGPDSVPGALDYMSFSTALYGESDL
UniProt P07954: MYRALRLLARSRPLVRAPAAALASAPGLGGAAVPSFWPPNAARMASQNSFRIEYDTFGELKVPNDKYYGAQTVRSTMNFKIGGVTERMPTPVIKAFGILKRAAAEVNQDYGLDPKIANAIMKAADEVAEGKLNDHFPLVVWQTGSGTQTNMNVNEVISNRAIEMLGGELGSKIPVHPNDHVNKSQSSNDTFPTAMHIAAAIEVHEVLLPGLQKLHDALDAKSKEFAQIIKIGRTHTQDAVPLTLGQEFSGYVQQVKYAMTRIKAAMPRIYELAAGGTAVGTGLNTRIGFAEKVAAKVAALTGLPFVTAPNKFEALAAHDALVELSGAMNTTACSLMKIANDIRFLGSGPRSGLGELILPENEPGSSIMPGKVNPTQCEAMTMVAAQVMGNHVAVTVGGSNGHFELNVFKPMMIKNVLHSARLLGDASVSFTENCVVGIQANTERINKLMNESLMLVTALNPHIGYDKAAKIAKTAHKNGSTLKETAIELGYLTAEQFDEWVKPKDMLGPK
UniProt P11474: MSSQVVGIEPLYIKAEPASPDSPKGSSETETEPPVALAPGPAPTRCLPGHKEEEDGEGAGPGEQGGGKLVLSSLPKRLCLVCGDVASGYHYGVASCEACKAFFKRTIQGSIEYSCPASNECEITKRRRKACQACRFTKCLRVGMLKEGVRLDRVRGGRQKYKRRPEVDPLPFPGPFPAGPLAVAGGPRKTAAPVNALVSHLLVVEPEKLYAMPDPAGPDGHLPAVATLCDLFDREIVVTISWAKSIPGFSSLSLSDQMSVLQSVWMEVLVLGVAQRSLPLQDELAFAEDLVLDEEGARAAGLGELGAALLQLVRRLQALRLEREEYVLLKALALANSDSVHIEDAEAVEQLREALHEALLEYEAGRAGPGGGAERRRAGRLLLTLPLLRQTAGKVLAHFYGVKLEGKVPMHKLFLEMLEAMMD
UniProt P10599: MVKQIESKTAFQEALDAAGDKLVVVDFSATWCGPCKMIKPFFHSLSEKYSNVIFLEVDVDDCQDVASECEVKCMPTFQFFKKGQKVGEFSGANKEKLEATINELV
UniProt P0C7T7: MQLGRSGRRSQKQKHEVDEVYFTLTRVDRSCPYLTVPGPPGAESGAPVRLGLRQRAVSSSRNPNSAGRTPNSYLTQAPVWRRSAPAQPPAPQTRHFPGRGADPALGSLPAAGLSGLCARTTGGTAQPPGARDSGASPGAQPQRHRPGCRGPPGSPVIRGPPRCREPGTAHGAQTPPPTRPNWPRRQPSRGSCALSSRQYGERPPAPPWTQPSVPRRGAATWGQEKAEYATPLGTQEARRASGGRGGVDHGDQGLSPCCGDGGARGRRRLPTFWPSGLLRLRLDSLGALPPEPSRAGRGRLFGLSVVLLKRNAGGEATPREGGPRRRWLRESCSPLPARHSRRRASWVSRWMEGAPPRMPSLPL
UniProt P09543: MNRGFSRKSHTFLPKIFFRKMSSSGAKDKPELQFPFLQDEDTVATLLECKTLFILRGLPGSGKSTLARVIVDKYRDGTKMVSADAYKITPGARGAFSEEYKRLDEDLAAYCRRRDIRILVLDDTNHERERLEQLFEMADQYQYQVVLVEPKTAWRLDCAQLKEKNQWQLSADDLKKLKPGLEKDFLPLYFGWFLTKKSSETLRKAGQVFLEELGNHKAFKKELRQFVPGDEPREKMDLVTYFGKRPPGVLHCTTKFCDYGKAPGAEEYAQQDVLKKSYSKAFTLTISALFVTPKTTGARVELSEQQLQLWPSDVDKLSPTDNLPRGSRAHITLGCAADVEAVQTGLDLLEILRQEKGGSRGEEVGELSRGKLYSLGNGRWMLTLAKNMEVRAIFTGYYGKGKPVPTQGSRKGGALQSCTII
UniProt P06748, whole entry: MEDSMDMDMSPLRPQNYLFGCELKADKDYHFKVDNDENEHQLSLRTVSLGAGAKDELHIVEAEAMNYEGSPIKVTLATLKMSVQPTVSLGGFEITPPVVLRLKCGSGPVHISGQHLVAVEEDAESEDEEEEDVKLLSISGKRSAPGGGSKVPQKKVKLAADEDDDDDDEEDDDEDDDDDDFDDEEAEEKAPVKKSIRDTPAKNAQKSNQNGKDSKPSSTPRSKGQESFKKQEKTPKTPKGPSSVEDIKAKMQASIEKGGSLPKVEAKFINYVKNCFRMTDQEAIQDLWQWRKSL
UniProt P08575: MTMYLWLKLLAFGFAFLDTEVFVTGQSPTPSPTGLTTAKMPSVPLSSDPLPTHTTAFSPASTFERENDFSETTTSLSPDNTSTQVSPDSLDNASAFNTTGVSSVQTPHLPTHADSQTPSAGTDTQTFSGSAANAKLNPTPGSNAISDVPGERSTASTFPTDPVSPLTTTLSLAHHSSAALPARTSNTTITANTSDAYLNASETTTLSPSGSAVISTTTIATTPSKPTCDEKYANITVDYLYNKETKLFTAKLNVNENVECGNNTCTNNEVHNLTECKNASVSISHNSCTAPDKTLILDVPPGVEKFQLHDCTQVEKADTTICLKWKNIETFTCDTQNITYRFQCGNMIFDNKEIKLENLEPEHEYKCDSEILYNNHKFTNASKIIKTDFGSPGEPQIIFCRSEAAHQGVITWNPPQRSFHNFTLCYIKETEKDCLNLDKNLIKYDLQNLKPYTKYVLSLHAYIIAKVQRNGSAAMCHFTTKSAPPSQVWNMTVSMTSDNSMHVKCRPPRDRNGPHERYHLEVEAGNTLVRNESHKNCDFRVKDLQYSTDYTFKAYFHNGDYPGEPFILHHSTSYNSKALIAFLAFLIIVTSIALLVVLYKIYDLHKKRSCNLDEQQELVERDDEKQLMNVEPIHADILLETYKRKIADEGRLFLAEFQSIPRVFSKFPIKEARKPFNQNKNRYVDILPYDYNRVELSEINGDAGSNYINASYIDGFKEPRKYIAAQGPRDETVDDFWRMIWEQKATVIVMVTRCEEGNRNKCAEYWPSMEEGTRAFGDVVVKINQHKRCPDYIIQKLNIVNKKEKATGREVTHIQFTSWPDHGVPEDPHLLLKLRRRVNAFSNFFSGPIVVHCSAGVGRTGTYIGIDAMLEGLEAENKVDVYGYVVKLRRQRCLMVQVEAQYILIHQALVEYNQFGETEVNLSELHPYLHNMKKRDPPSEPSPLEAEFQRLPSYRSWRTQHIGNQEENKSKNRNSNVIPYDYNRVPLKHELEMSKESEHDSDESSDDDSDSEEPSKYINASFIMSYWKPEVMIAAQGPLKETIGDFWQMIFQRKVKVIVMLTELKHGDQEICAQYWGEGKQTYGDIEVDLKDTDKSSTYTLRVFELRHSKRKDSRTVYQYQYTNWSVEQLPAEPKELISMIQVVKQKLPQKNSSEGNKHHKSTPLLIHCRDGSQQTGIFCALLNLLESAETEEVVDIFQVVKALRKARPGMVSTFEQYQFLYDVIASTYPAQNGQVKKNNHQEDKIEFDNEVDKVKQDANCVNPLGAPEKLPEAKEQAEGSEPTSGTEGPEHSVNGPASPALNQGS

This is one part of the list. Most entries show no effect beyond the scatter of the controls.

Compound in the assay: CN[C@@H]1C[C@H]2O[C@@](C)([C@@H]1OC)n1c3ccccc3c3c4c(c5c6ccccc6n2c5c31)C(=O)NC4 [staurosporine]
As to the kind of experiment: log2 fold change of tryptic peptide abundance, ligand vs vehicle (limited proteolysis) (log2 ratio); higher = more trypsin-susceptible (destabilized). To be noted: ligand concentration: 20 uM; sample: K562 cleared lysate; digestion: 4 min, 22 C (HT-PELSA RT4min, Orbitrap Astral).
For “MYL3 (peptide sequence: ITYGQCGDVLR, peptide start residue: 73) (UniProt P08590)”, the log2 fold change was -0.0177.
In the case of “CCNE2 (peptide sequence: ILTAAALCHFTSIEVVKK, peptide start residue: 295) (UniProt O96020)”, the log2 fold change was -0.0358.
Regarding “ADH5 (peptide sequence: AFELMHSGK, peptide start residue: 358) (UniProt P11766)”, the log2 fold change came to 0.309.
With “CKM (peptide sequence: GIWHNDNK, peptide start residue: 216) (UniProt P06732)”, the log2 fold change was -0.173.
As to “UniProt P0C875 (peptide sequence: KEMLYKR, peptide start residue: 73)”, the log2 fold change was -0.391.
For “HEXB (peptide sequence: VLDIIATINK, peptide start residue: 391) (UniProt P07686)” the value was 0.0769; for “ACTN1 (peptide sequence: ILAGDKNYITMDELR, peptide start residue: 835) (UniProt P12814)”, 0.407; for “FH (peptide sequence: AADEVAEGK, peptide start residue: 123) (UniProt P07954)”, -0.189.
“MTHFD1 (peptide sequence: TTTESEVMK, peptide start residue: 75) (UniProt P11586)”: the log2 fold change was -0.157.
Next, “ESRRA (peptide sequence: CLPGHKEEEDGEGAGPGEQGGGK, peptide start residue: 46) (UniProt P11474)”: -0.146; “PCNA (peptide sequence: MPSGEFAR, peptide start residue: 139) (UniProt P12004)”: 0.167.
Consider “PC (peptide sequence: VAKENNVDAVHPGYGFLSER, peptide start residue: 105) (UniProt P11498)”, for which the log2 fold change is -0.238.
Consider “TXN (peptide sequence: VGEFSGANKEK, peptide start residue: 86) (UniProt P10599)”, for which the log2 fold change turned out to be 0.542.
For “UniProt P0C7T7 (peptide sequence: SAPAQPPAPQTR, peptide start residue: 83)”, the log2 fold change worked out at 0.234.
Next, “CNP (peptide sequence: GAFSEEYKR, peptide start residue: 94) (UniProt P09543)”: 0.448.
Consider “HP (peptide sequence: LPECEAVCGKPK, peptide start residue: 142) (UniProt P00738)”, for which the log2 fold change amounted to 0.162.
As for “NPM1 (peptide sequence: TPKGPSSVEDIK, peptide start residue: 237) (UniProt P06748)”, the log2 fold change is 0.805.
Regarding “PTPRC (peptide sequence: NNHQEDKIEFDNEVDKVK, peptide start residue: 1239) (UniProt P08575)”, the log2 fold change was -0.413.
Next, “MRPL3 (peptide sequence: GQPATHGQTK, peptide start residue: 226) (UniProt P09001)”: 0.225.
